Data reported in article doi:10.1101/2022.10.27.514035.
No constants are given. Whether binding was seen depends on the method and setting. Tags and fused reporters may be left off the sequences shown.

B1: S. cerevisiae Atg8, His10-tagged (protein, UniProt P38182 1-117)
chain: MKSTFKSEYPFEKRKAESERIADRFKNRIPVICEKAEKSDIPEIDKRKYLVPADLTVGQFVYVIRKRIMLPPEKAIFIFVNDTLPPTAALMSAIYQEHKDKDGFLYVTYSGENTFGR
B2: S. pombe Atg8, GST-tagged (protein, UniProt O94272 1-116)
chain: MRSQFKDDFSFEKRKTESQRIREKYPDRIPVICEKVDKSDIAAIDKKKYLVPSDLTVGQFVYVIRKRIKLSPEKAIFIFIDEILPPTAALMSTIYEEHKSEDGFLYITYSGENTFG

Tests used:
[1] = target: S. japonicus Rop1 with mutated putative AIM motif, SBP-tagged (S. japonicus); assay: pull-down
[2] = target: S. japonicus Rop1, SBP-tagged (S. japonicus); assay: pull-down

Binder | binding [1] | binding [2]
B1 | no binding | no binding
B2 | no binding | no binding
